{
  "source": "patent US20250283040A1",
  "about": "“Methods to Expand a T Regulatory Cell Master Cell Bank” (The Trustees of the University of Pennsylvania, priority 2010, published 2025)",
  "key": {"PB nTreg": {"test_system": "PB nTreg", "test": "Ex vivo expansion of PB nTreg cultures (fold expansion)", "set-up": "species or system human", "conditions": "Rapamycin 109 nM, re-stimulation based upon cell size, adult peripheral blood Tregs", "procedure": "Experiments were designed to expand Tregs isolated from adult peripheral blood. Tregs were isolated by a two step procedure in which CD4 cells were first enriched by depleting CD8, −14, and −19+ cells with GMP-grade mAb coated microbeads, followed by positive selection of CD25++ cells using GMP-grade anti-CD25 microbeads (either 75μl/2×10^8 cells, Miltenyi). Treg were subsequently expanded in vitro by repeated stimulation with CD3/28 beads or KT64/86 loaded with anti-CD3 antibody. In addition, the expansion scheme involved expanding Tregs in the presence of Rapamycin (109 nM) and restimulation based upon cell size.\nFor all experiments, non-mobilized peripheral blood Leukapheresis products were collected from normal adult volunteers using FDA approved/cleared apheresis instruments. Written informed consent was obtained from all subjects. nTreg were purified using GMP magnetic beads or by sorting. […]\nWhere indicated, Rapamycin (Rapammune, Wyeth-Ayerst) at 109 nM was added on day 0 and with subsequent media supplementation. Cell size and viability were determined by ViCell (Beckman Coulter)."}, "nTreg cultures": {"test_system": "nTreg cultures", "test": "IL-17 in culture supernatants", "type": "cell-based, human", "conditions": "all re-stimulation samples cultured with Rapamycin"}},
  "note": "For at least one compound, name, drawing or mass did not settle the structure.",
  "data": [
    {"smiles": "CO[C@H]1C[C@@H]2CC[C@@H](C)[C@@](O)(O2)C(=O)C(=O)N2CCCC[C@H]2C(=O)O[C@H]([C@H](C)C[C@@H]2CC[C@@H](O)[C@H](OC)C2)CC(=O)[C@H](C)/C=C(\\C)[C@@H](O)[C@@H](OC)C(=O)[C@H](C)C[C@H](C)/C=C/C=C/C=C/1C", "note": "[Rapamycin]", "values": [
      {"measurement": "Reversion of repeatedly stimulated Tregs to T effector cells", "setting": "PB nTreg", "value": "did not revert to T effector cells"},
      {"measurement": "IL-17 in supernatants", "setting": "nTreg cultures", "value": "undetectable"}
    ]}
  ]
}
